Drawing on PMC12561377, this text covers binding for 1 molecule.

In the experiment the target is T1, zinc finger DHHC‐type palmitoyltransferase 12 (ZDHHC12) (human (endogenous in Huh7 and Hep3B)) (UniProt Q96GR4).
T1 sequence: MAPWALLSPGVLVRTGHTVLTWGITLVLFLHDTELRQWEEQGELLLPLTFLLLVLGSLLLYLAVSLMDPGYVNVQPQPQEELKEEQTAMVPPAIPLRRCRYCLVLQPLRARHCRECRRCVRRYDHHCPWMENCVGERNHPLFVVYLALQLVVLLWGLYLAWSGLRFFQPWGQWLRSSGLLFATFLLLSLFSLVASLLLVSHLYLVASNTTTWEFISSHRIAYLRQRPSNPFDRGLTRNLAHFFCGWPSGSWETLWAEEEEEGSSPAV
The experiment in a line: affinity purification with mass spectrometry; ZDHHC12 pull‐down from Hep3B cells with antibodies to ZDHHC12, then mass spectrometry.

Results are given in words; binding and its absence hold for the method and conditions named. Binding seen in cells or lysates may run through a third protein. A yes stands for co-enrichment or nearness to the bait. Other partners may have been found. Sequences can lack the tags named with a protein.

B1: histone deacetylase 8 (HDAC8) (enzyme, UniProt Q9BY41 1-377)
chain: MEEPEEPADSGQSLVPVYIYSPEYVSMCDSLAKIPKRASMVHSLIEAYALHKQMRIVKPKVASMEEMATFHTDAYLQHLQKVSQEGDDDHPDSIEYGLGYDCPATEGIFDYAAAIGGATITAAQCLIDGMCKVAINWSGGWHHAKKDEASGFCYLNDAVLGILRLRRKFERILYVDLDLHHGDGVEDAFSFTSKVMTVSLHKFSPGFFPGTGDVSDVGLGKGRYYSVNVPIQDGIQDEKYYQICESVLKEVYQAFNPKAVVLQLGADTIAGDPMCSFNMTPVGIGKCLKYILQWQLATLILGGGGYNLANTARCWTYLTGVILGKTLSSEIPDHEFFTAYGPDYVLEITPSCRPDRNEPHRIQQILNYIKGNLKHVV
As to B1, the binding result is recorded as “binds”.
